Assay results published in PMC6925144, “A prospective compound screening contest identified broader inhibitors for Sirtuin 1” (Scientific Reports, 2019).
In all, about 3,200 compounds were measured (“TSA(with NAD+) / Primary screening (TSA) / delta Tm (K)”: median about -0.04, highest 2% from about 0.37 on). The list shows a part of the results.

Chains of the proteins cited; added tags and fusions are not shown. Residues count along the entry.
UniProt Q96EB6, 2-747 limits assumed: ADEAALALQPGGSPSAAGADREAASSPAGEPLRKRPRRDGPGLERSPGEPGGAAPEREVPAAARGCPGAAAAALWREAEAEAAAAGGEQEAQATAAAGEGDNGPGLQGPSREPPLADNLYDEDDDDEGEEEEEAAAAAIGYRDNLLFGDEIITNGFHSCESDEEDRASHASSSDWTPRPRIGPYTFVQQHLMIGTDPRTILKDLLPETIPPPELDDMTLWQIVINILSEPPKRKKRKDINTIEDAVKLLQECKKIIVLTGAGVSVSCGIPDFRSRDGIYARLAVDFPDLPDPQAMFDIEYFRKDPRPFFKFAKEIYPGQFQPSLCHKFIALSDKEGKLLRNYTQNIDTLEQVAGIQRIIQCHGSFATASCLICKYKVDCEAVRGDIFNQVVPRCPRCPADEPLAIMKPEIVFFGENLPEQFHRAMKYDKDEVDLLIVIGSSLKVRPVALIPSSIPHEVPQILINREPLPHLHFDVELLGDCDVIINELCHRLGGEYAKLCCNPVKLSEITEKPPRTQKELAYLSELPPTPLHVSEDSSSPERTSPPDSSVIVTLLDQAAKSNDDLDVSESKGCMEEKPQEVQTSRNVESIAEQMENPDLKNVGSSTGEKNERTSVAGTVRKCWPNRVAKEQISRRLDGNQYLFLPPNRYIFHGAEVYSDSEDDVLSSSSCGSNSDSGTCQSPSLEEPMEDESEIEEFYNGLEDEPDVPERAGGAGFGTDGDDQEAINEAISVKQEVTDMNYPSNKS

Each compound was assayed against NAD-dependent deacetylase Sirtuin 1 (human, UniProt Q96EB6) (assay: primary screen, delta tm). Settings: 10 µM.
Design: single well (n = 1, as 'the same TSA')

SMILES | TSA(with NAD+) / Primary screening (TSA) / delta Tm (K)
Cc1nc2ccccc2c(=O)n1CC(=O)O | -0.03 K
COc1ccc(C2C(C(=O)/C=C/c3ccco3)=C(O)C(=O)N2CCCN2CCOCC2)cc1 (stereo not drawn) | -0.14 K
CC(NC(=O)c1ccccc1NC(=O)COC(=O)C12CC3CC(CC(O)(C3)C1)C2)c1ccccc1 (stereo not drawn) | 0.05 K
Cc1nc(S)sc1CC(=O)NCC1CCCS1(=O)=O (stereo not drawn) | -0.01 K
CC(OC(=O)CNC(=O)C12CC3CC(CC(C3)C1)C2)C(=O)Nc1ccccc1-c1ccccc1 (stereo not drawn) | -0.01 K
CC12CCC(C/C1=N/N=C1/CC3CCC1(C)C3(C)C)C2(C)C | -0.29 K
O=C(Nc1ccccc1Oc1ccccc1)c1cccc([N+](=O)[O-])c1 | -0.03 K
Cc1csc2c(NC3(CO)CCCC3)ncnc12 | -0.06 K
CCOc1ccc(C2C(C(=O)c3ccc(OC)cc3)=C(O)C(=O)N2CCCN2CCOCC2)cc1 (stereo not drawn) | -0.05 K
Cc1ccc(N(C)S(=O)(=O)c2cccc(C(=O)Nc3sccc3C(N)=O)c2)cc1 | 0.26 K
COc1cccc(NC(=O)COc2ccc(C(=O)OCC(=O)NCCC3=CCCCC3)cc2)c1 | -0.14 K
COc1ccc(C(N)=O)cc1NC(=O)c1ccccc1-c1nc(C(C)C)no1 | -0.23 K
O=C1COc2ccc(C(=O)CSc3nc(-c4ccccc4)c(-c4ccccc4)o3)cc2N1 | 0.01 K
O=c1c2ccncc2ncn1CC(O)c1cccc(F)c1 (stereo not drawn) | -0.11 K
N#Cc1ccc(CN2CCN(CC(=O)Nc3cc(Cl)ccc3-n3cncn3)CC2)cc1 | 0.08 K
Cc1ccc(CN(CCc2ccccc2)C(=O)Cc2c(C)nc(-c3ccccn3)[nH]c2=O)s1 | 0.12 K
C=Cn1c(N)c(C(=O)OCC)sc1=S | -0.21 K
O=C(CCc1c[nH]c2ccccc12)N1CCCC(c2nc3ccccc3[nH]2)C1 (stereo not drawn) | 0.05 K
Cc1ccc(N(C)S(=O)(=O)c2cccc(C(=O)OCc3cc(=O)oc4c(C)c(C)ccc34)c2)cc1 | -0.11 K

SMILES | TSA(with NAD+) / Primary screening (TSA) / delta Tm (K)
O=C(C1=C(O)C(=O)N(CCN2CCOCC2)C1c1ccco1)c1ccco1 (stereo not drawn) | -0.11 K
COc1ccc(-n2ccc(C(=O)Nc3ccc4nc[nH]c(=O)c4c3)n2)cc1 | -0.05 K
C=CCNC(=O)c1ccc(NC(=O)N2CCC(C(=O)Nc3ccccc3OC)CC2)cc1 | -0.03 K
CC(C)Oc1ccc(S(=O)(=O)N2CCOCC2)cc1NC(=O)C1=COCCO1 | -0.06 K
NC(=O)c1ccccc1OCc1cccc(COc2ccccc2C(N)=O)c1 | -0.05 K
CCOc1ccc(S(=O)(=O)N(CC(=O)NC23CC4CC(CC(C4)C2)C3)Cc2ccccc2)cc1 | -0.01 K
Cc1ccc(/C=C/S(=O)(=O)NCC(=O)Nc2ccccc2Cc2ccccc2)cc1 | -0.09 K
COC(=O)c1sc2cccc(F)c2c1CNC(=O)Cn1cnnn1 | -0.01 K
CC(Oc1ccc(C#N)cc1)C(=O)NC(C)c1ccc2ccccc2c1 (stereo not drawn) | -0.02 K
COc1ccc(C(=O)C(C)OC(=O)c2c(C)noc2C)cc1 (stereo not drawn) | -0.04 K
CC(=O)C(C)N (stereo not drawn) | -0.14 K
Cc1ccc(NC=C2C(=O)NC(=S)NC2=O)cc1 | -0.19 K
COC(=O)c1cc2c(C)nn(-c3ccc(F)cc3)c2s1 | 0.07 K
COc1ncnc2c1CN(C(C)C(=O)N1CCc3ccccc31)CC2 (stereo not drawn) | 0.01 K
CCOc1nc2cc(C(=O)OCCC3CCCCN3C(=O)c3cccn3C)ccc2[nH]1 (stereo not drawn) | -0.09 K
Cc1ccc(C)c(CSCc2nc3ccsc3c(=O)[nH]2)c1 | -0.23 K
O=C(O)c1c2ccccc2cc2ccccc12 | -0.11 K
Cc1nc2ccc(C(=O)NC(Cc3ccccc3)C(N)=O)cc2nc1C (stereo not drawn) | -0.14 K
O=C(Nc1ccc(N2CCCCC2)cc1)c1cc(Cl)nc2ccccc12 | 0.01 K

Grouped by structure, those above with a COOH group (2)
SMILES | TSA(with NAD+) / Primary screening (TSA) / delta Tm (K)
Cc1nc2ccccc2c(=O)n1CC(=O)O | -0.03 K
O=C(O)c1c2ccccc2cc2ccccc12 | -0.11 K

Following part

SMILES | TSA(with NAD+) / Primary screening (TSA) / delta Tm (K)
O=C(Nc1cccc(S(=O)(=O)NCc2ccco2)c1)c1ccccc1OCc1ccccc1 | 0.11 K
Cc1cccc([N+](=O)[O-])c1N | 0.05 K
COc1ccc(N(C)S(=O)(=O)c2cccc(C(=O)Nc3cccc4ccccc34)c2)cc1 | -0.09 K
CCCc1noc(CSc2nccn2Cc2ccccn2)n1 | -0.04 K
Cc1cc(C)c(CCNC(=O)NC2CCCNC2=O)c(C)c1 (stereo not drawn) | -0.06 K
CC(C)Oc1ccc(-c2nc(C(=O)OC3CCCN(Cc4ncccn4)C3)cs2)cc1 (stereo not drawn) | 0.03 K
COc1cc(NC(=O)c2cccs2)c(C(=O)OCC(=O)NC23CC4CC(CC(C4)C2)C3)cc1OC | 0.03 K
COc1ccc(C2CNC(c3ccccc3)c3[nH]c4ccccc4c32)cc1 (stereo not drawn) | -0.21 K
COc1ccc(/C=C/C(=O)NCCn2c(C)nc3ccccc32)cc1 | -0.21 K
O=C(Nc1ccc2[nH]c(=O)[nH]c2c1)C1c2ccccc2Oc2ccccc21 | 0.07 K
Cc1nc(CSc2ccccc2C(=O)NCc2ccc(Cn3ccnc3)cc2)no1 | -0.05 K
CCCOc1ccc(C(=O)C2=C(O)C(=O)N(CCN3CCOCC3)C2c2ccccn2)cc1 (stereo not drawn) | -0.02 K
Cc1ccc(-c2nn(-c3ccccc3)cc2C=C2C(=O)NC(=S)NC2=O)o1 | 0.18 K
COc1ccc(Br)cc1C=C1C(=O)c2ccccc2C1=O | -0.13 K
Cc1c(C=C2C(=O)NC(=S)NC2=O)c2ccccn2c1C(=O)c1cccc([N+](=O)[O-])c1 | -0.03 K
O=C(O)CCc1ccc(S(=O)(=O)Nc2ccc3[nH]c(-c4ccc(F)cc4)nc3c2)cc1 | 0.01 K
Cc1ccc(-c2csc3ncn(CC(=O)NCC(=O)Nc4ccc(F)c(F)c4F)c(=O)c23)s1 | 0.01 K
COc1cccc(/C=N/c2ccc(C)cc2)c1OC | -0.01 K
O=C(C1CCCc2ccccc21)N1CCCC(c2nc3ccccc3o2)C1 (stereo not drawn) | -0.08 K
